Laboratory results: paper PMC10307626, “Structural basis of NINJ1-mediated plasma membrane rupture in cell death” (Nature, 2023)
No constants are given. Whether binding was seen depends on the method and setting. In cells and extracts the contact can be indirect. Some results given as binding are weak or reduced against the parent protein; the word gives no strength.

Molecular target: endogenous mouse NINJ1 in bone-marrow-derived macrophages (mouse (endogenous in BMDMs)) (UniProt O70131)
Assay: cross-linking; primed mouse BMDMs, untreated or stimulated with nigericin (2–85 min or 1.5 h), then membrane-impermeable BS3 (3 mM) for 5 min at room temperature, stopped with 20 mM Tris pH 7.5; western blot of lysates combined with precipitated supernatants

B1: endogenous mouse NINJ1 in bone-marrow-derived macrophages (protein, UniProt O70131 1-152)
chain: MESGTEEYELNGDLRPGSPGSPDALPPRWGLRNRPINVNHYANKKSAAESMLDIALLMANASQLKAVVEQGNDFAFFVPLVVLISISLVLQIGVGVLLIFLVKYDLNNPAKHAKLDFLNNLATGLVFIIVVVNIFITAFGVQKPVMDVAPRQ
- binding: binds
